Measured values taken from paper PMC3422339.
Results are given in words; binding and its absence hold for the method and conditions named. For some of these results: Binding seen in cells or lysates may run through a third protein. Some entries that bind do so weakly or less than the wild type. For some of these results: Sequences can lack the tags named with a protein. Values belong to the binder of their own block, whether it stands above or below them.

How the values were obtained:
[1] = target: T1, 6His-LEC1/AtNF-YB9 HFD (AA 56-148) (Arabidopsis thaliana) (UniProt Q9SFD8); assay: pull-down; co-expression of the HFDs in E. coli BL21(DE3); Ni-chelate affinity co-purification from the soluble extract by the 6His tag of the AtNF-YB; buffer A (10 mM Tris pH 8.0, 400 mM NaCl, 2 mM MgCl2, 5 mM imidazole), eluted with 100 mM imidazole; SDS-PAGE, Coomassie
T1 sequence: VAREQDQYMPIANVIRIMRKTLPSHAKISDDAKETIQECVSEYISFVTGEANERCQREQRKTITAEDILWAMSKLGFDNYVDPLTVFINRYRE

[2] = target: T2, His-tagged recombinant L1L/AtNF-YB6 (Arabidopsis thaliana) (UniProt Q84W66); assay: co-renaturation of denatured subunits; single His-tagged HFD subunits from E. coli inclusion bodies, denatured and renatured when mixed together; both purified
T2 sequence: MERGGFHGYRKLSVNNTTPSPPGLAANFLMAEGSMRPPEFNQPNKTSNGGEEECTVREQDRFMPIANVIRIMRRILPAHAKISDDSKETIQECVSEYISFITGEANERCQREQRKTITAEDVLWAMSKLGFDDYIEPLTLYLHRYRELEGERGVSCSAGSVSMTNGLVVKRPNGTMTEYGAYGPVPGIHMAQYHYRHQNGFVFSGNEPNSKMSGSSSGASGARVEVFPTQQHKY

[3] = target: T3, AtNF-YB2 (Arabidopsis thaliana) (UniProt Q9FGJ3); assay: two-hybrid; colony (plate) assay, Figure 1B as the text tells it: AtNF-YBs fused to GAL4 DBD (bait), AtNF-YCs to GAL4 AD (prey); S. cerevisiae PJ69-4A diploids; YSD lacking Leu, Trp and Ade or His with 50 mM 3-aminotriazole; 28°C, 4 days; read-outs His, Ade, LacZ
T3 sequence: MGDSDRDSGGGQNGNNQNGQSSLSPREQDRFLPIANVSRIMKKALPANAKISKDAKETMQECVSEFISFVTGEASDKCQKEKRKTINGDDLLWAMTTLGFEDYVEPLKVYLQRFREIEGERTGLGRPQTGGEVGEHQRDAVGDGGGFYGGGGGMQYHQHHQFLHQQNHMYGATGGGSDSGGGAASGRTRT

[4] = target: T4, AtNF-YB3 (Arabidopsis thaliana) (UniProt O23310); assay: as above
T4 sequence: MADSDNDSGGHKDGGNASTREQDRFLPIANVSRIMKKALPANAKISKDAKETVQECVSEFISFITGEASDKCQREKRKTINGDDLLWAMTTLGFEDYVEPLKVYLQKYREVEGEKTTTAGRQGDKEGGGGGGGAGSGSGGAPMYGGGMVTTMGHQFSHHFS

[5] = target: T3, AtNF-YB2 (Arabidopsis thaliana); assay: two-hybrid; liquid LacZ assay (beta-galactosidase, ONPG, Miller units), semi-quantitative; AtNF-YB (DBD) and AtNF-YC (AD) configuration; control AtNF-YB GAL4-DBD with empty GAL4-AD
[6] = target: T4, AtNF-YB3 (Arabidopsis thaliana); assay: as above
[7] = target: T5, AtNF-YB10 (Arabidopsis thaliana) (UniProt Q67XJ2); assay: as above
T5 sequence: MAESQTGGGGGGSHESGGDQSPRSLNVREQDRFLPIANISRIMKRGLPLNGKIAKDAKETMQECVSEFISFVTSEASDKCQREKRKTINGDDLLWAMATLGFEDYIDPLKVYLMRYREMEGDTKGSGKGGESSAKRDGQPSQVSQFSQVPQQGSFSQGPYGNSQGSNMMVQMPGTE

[8] = target: T6, AtNF-YB7 (Arabidopsis thaliana) (UniProt Q9SIT9); assay: as above
T6 sequence: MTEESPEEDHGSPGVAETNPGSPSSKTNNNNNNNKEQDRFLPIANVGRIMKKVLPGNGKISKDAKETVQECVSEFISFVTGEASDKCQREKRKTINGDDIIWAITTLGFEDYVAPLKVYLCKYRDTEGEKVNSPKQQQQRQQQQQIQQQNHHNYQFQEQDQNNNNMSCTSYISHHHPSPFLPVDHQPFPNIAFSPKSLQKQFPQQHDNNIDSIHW

[9] = target: T5, AtNF-YB10 (Arabidopsis thaliana); assay: two-hybrid; colony (plate) assay, Figure 1B as the text tells it: AtNF-YBs fused to GAL4 DBD (bait), AtNF-YCs to GAL4 AD (prey); S. cerevisiae PJ69-4A diploids; YSD lacking Leu, Trp and Ade or His with 50 mM 3-aminotriazole; 28°C, 4 days; read-outs His, Ade, LacZ
[10] = target: T7, AtNF-YC6 (Arabidopsis thaliana) (UniProt Q9FGP7); assay: two-hybrid; colony (plate) assay, Figure 1A as the text tells it: AtNF-YCs fused to GAL4 DBD (bait), AtNF-YBs to GAL4 AD (prey); S. cerevisiae PJ69-4A diploids; YSD lacking Leu, Trp and Ade or His with 50 mM 3-aminotriazole; 28°C, 4 days; read-outs His, Ade, LacZ
T7 sequence: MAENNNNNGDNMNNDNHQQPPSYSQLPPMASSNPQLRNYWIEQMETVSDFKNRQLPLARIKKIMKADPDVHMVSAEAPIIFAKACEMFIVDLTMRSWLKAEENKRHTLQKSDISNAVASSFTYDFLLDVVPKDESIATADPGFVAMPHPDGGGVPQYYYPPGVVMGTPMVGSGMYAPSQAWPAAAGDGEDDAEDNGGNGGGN

B1: AtNF-YC3 HFD (AA 55-148), untagged (domain or fragment, UniProt Q9ZVL3 55-148)
chain: TQFKEIEKTTDFKNHSLPLARIKKIMKADEDVRMISAEAPVVFARACEMFILELTLRSWNHTEENKRRTLQKNDIAAAVTRTDIFDFLVDIVPR
binding [1]: binds

B4: AtNF-YC2 (protein, UniProt Q8LCG7 1-199)
chain: MEQSEEGQQQQQQGVMDYVPPHAYQSGPVNAASHMAFQQAHHFHHHHQQQQQQQLQMFWANQMQEIEHTTDFKNHTLPLARIKKIMKADEDVRMISAEAPVIFAKACEMFILELTLRAWIHTEENKRRTLQKNDIAAAISRTDVFDFLVDIIPRDELKEEGLGVTKGTIPSVVGSPPYYYLQQQGMMQHWPQEQHPDES
binding [5]: binds weakly
binding [6]: binds weakly
binding [3]: binds weakly
binding [4]: binds weakly

B6: AtNF-YC3 (protein, UniProt Q9ZVL3 1-217)
chain: MDQQGQSSAMNYGSNPYQTNAMTTTPTGSDHPAYHQIHQQQQQQLTQQLQSFWETQFKEIEKTTDFKNHSLPLARIKKIMKADEDVRMISAEAPVVFARACEMFILELTLRSWNHTEENKRRTLQKNDIAAAVTRTDIFDFLVDIVPREDLRDEVLGGVGAEAATAAGYPYGYLPPGTAPIGNPGMVMGNPGAYPPNPYMGQPMWQQPGPEQQDPDN
binding [7]: binds weakly
binding [9]: binds weakly
binding [3]: binds
binding [4]: binds

B8: AtNF-YB2 (protein, UniProt Q9FGJ3 1-190)
chain: MGDSDRDSGGGQNGNNQNGQSSLSPREQDRFLPIANVSRIMKKALPANAKISKDAKETMQECVSEFISFVTGEASDKCQKEKRKTINGDDLLWAMTTLGFEDYVEPLKVYLQRFREIEGERTGLGRPQTGGEVGEHQRDAVGDGGGFYGGGGGMQYHQHHQFLHQQNHMYGATGGGSDSGGGAASGRTRT
binding [10]: binds weakly

B9: AtNF-YC4 (protein, UniProt Q9FMV5 1-250)
chain: MDNNNNNNNQQPPPTSVYPPGSAVTTVIPPPPSGSASIVTGGGATYHHLLQQQQQQLQMFWTYQRQEIEQVNDFKNHQLPLARIKKIMKADEDVRMISAEAPILFAKACELFILELTIRSWLHAEENKRRTLQKNDIAAAITRTDIFDFLVDIVPREEIKEEEDAASALGGGGMVAPAASGVPYYYPPMGQPAVPGGMMIGRPAMDPSGVYAQPPSQAWQSVWQNSAGGGDDVSYGSGGSSGHGNLDSQG
binding [3]: binds
binding [4]: binds

Continued, values first:

binding [2]: binds
B2: His-tagged recombinant AtNF-YC7 (protein, UniProt Q9FGP8 1-212)
chain: MEENNGNNNHYLPQPSSSQLPPPPLYYQSMPLPSYSLPLPYSPQMRNYWIAQMGNATDVKHHAFPLTRIKKIMKSNPEVNMVTAEAPVLISKACEMLILDLTMRSWLHTVEGGRQTLKRSDTLTRSDISAATTRSFKFTFLGDVVPRDPSVVTDDPVLHPDGEVLPPGTVIGYPVFDCNGVYASPPQMQEWPAVPGDGEEAAGEIGGSSGGN

binding [3]: binds
binding [4]: binds
B3: AtNF-YC9 (protein, UniProt Q8L4B2 1-231)
chain: MDQQDHGQSGAMNYGTNPYQTNPMSTTAATVAGGAAQPGQLAFHQIHQQQQQQQLAQQLQAFWENQFKEIEKTTDFKNHSLPLARIKKIMKADEDVRMISAEAPVVFARACEMFILELTLRSWNHTEENKRRTLQKNDIAAAVTRTDIFDFLVDIVPREDLRDEVLGSIPRGTVPEAAAAGYPYGYLPAGTAPIGNPGMVMGNPGGAYPPNPYMGQPMWQQQAPDQPDQEN

binding [7]: binds weakly
binding [5]: binds weakly
binding [6]: binds weakly
binding [8]: binds weakly
binding [3]: binds weakly
binding [4]: binds weakly
B5: AtNF-YC6 (protein, UniProt Q9FGP7 1-202)
chain: MAENNNNNGDNMNNDNHQQPPSYSQLPPMASSNPQLRNYWIEQMETVSDFKNRQLPLARIKKIMKADPDVHMVSAEAPIIFAKACEMFIVDLTMRSWLKAEENKRHTLQKSDISNAVASSFTYDFLLDVVPKDESIATADPGFVAMPHPDGGGVPQYYYPPGVVMGTPMVGSGMYAPSQAWPAAAGDGEDDAEDNGGNGGGN

binding [2]: binds
B7: His-tagged recombinant AtNF-YC3 (protein, UniProt Q9ZVL3 1-217)
chain: MDQQGQSSAMNYGSNPYQTNAMTTTPTGSDHPAYHQIHQQQQQQLTQQLQSFWETQFKEIEKTTDFKNHSLPLARIKKIMKADEDVRMISAEAPVVFARACEMFILELTLRSWNHTEENKRRTLQKNDIAAAVTRTDIFDFLVDIVPREDLRDEVLGGVGAEAATAAGYPYGYLPPGTAPIGNPGMVMGNPGAYPPNPYMGQPMWQQPGPEQQDPDN
